In PMC6963571 one finds binding data, which are given here for two molecules.

These are yes or no findings as the source states them, for the method shown. Some results given as binding are weak or reduced against the parent protein; the word gives no strength.

The target of this experiment is T1, genetically modified nitroreductase (NfnB-Cys) (Escherichia coli K-12) (UniProt P38489).
T1 sequence: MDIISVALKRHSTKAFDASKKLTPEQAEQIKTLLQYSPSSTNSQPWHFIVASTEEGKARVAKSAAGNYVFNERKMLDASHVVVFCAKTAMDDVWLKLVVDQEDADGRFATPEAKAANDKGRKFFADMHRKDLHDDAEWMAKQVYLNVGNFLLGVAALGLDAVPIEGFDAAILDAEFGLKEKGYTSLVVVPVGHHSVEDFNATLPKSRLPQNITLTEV
The experiment is described as follows: native gel or EMSA; both purified. Background: In EMSA bound probe runs differently from free probe, usually more slowly.

B1: Pep-1 (peptide)
peptide: KETWWETWWTEWSQPKKKRKV
For the molecule B1, the binding entry is listed as “binds”.

B2: HR9 (peptide)
peptide: CHHHHHHRRRRRRRRRHHHHHHC
On to B2, for which the binding result is “binds”.
